Data reported in paper doi:10.1101/2021.12.15.472781.
No constants are given. Whether binding was seen depends on the method and setting. In cells and extracts the contact can be indirect. A result given as binding can be weak or reduced; the word gives no strength.

Experiments:
[1] = biological target: VIR3-FLAG in stably transformed Arabidopsis vir3-1/pUBQ::VIR3-FLAG seedlings (Arabidopsis); experiment: co-IP
[2] = biological target: VIR3^H239Y-FLAG in stably transformed Arabidopsis vir3-1/pUBQ::VIR3^H239Y-FLAG seedlings (Arabidopsis); experiment: co-IP

binding [1]	binding [2]	Binder
binds	binds	GAPB (plastidial GAPDH isoform B), endogenous in Arabidopsis seedlings (enzyme, UniProt P25857 81-447) KLKVAINGFGRIGRNFLRCWHGRKDSPLEVVVLNDSGGVKNASHLLKYDSMLGTFKAEVKIVDNETISVDGKLIKVVSNRDPLKLPWAELGIDIVIEGTGVFVDGPGAGKHIQAGASKVIITAPAKGADIPTYVMGVNEQDYGHDVANIISNASCTTNCLAPFAKVLDEEFGIVKGTMTTTHSYTGDQRLLDASHRDLRRARAAALNIVPTSTGAAKAVSLVLPQLKGKLNGIALRVPTPNVSVVDLVINVEKKGLTAEDVNEAFRKAANGPMKGILDVCDAPLVSVDFRCSDVSTTIDSSLTMVMGDDMVKVVAWYDNEWGYSQRVVDLAHLVASKWPGAEAVGSGDPLEDFCKTNPADEECKVYD
binds	binds	tAPX (thylakoidal isoform of ascorbate peroxidase), endogenous in Arabidopsis seedlings (enzyme, UniProt Q42593 79-426) AASDAAQLISAKEDIKVLLRTKFCHPILVRLGWHDAGTYNKNIEEWPLRGGANGSLRFEAELKHAANAGLLNALKLIQPLKDKYPNISYADLFQLASATAIEEAGGPDIPMKYGRVDVVAPEQCPEEGRLPDAGPPSPADHLRDVFYRMGLDDKEIVALSGAHTLGRARPDRSGWGKPETKYTKTGPGEAGGQSWTVKWLKFDNSYFKDIKEKRDDDLLVLPTDAALFEDPSFKNYAEKYAEDVAAFFKDYAEAHAKLSNLGAKFDPPEGIVIENVPEKFVAAKYSTGKKELSDSMKKKIRAEYEAIGGSPDKPLPTNYFLNIIIAIGVLVLLSTLFGGNNNSDFSGF
